Measurements taken from publication doi:10.1101/2022.07.11.499601.
No constants are given. Whether binding was seen depends on the method and setting. Binding seen in cells or lysates may run through a third protein. Some entries that bind do so weakly or less than the wild type.

Molecular target: T1, CXCR3-SmBiT, P49682
T1 chain: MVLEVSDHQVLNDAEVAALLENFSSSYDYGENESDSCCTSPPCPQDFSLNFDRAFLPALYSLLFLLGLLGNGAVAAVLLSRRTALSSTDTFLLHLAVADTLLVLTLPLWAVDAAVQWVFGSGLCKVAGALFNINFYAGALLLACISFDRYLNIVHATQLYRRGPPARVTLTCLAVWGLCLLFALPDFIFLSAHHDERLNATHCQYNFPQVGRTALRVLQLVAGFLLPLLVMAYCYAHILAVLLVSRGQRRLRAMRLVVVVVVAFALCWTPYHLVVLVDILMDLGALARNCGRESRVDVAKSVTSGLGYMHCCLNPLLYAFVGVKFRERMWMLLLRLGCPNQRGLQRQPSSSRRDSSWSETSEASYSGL
Experiment: split reporter
Conditions: remark: other sources report otherwise

B1: GRK6-LgBiT, P43250 1-576 (enzyme)
chain: MELENIVANTVLLKAREGGGGNRKGKSKKWRQMLQFPHISQCEELRLSLERDYHSLCERQPIGRLLFREFCATRPELSRCVAFLDGVAEYEVTPDDKRKACGRQLTQNFLSHTGPDLIPEVPRQLVTNCTQRLEQGPCKDLFQELTRLTHEYLSVAPFADYLDSIYFNRFLQWKWLERQPVTKNTFRQYRVLGKGGFGEVCACQVRATGKMYACKKLEKKRIKKRKGEAMALNEKQILEKVNSRFVVSLAYAYETKDALCLVLTLMNGGDLKFHIYHMGQAGFPEARAVFYAAEICCGLEDLHRERIVYRDLKPENILLDDHGHIRISDLGLAVHVPEGQTIKGRVGTVGYMAPEVVKNERYTFSPDWWALGCLLYEMIAGQSPFQQRKKKIKREEVERLVKEVPEEYSERFSPQARSLCSQLLCKDPAERLGCRGGSAREVKEHPLFKKLNFKRLGAGMLEPPFKPDPQAIYCKDVLDIEQFSTVKGVELEPTDQDFYQKFATGSVPIPWQNEMVETECFQELNVFGLDGSVPPDLDWKGQPPAPPKKGLLQRLFSRQDCCGNCSDSEEELPTRL
  binding: binds
